Results taken from PMC6321210.
Results are given in words; binding and its absence hold for the method and conditions named. Binding seen in cells or lysates may run through a third protein. Some entries that bind do so weakly or less than the wild type. Values belong to the molecule of their own block, whether it stands above or below them.

The chains behind the UniProt entries cited, without tags or fusion partners.
UniProt Q05397: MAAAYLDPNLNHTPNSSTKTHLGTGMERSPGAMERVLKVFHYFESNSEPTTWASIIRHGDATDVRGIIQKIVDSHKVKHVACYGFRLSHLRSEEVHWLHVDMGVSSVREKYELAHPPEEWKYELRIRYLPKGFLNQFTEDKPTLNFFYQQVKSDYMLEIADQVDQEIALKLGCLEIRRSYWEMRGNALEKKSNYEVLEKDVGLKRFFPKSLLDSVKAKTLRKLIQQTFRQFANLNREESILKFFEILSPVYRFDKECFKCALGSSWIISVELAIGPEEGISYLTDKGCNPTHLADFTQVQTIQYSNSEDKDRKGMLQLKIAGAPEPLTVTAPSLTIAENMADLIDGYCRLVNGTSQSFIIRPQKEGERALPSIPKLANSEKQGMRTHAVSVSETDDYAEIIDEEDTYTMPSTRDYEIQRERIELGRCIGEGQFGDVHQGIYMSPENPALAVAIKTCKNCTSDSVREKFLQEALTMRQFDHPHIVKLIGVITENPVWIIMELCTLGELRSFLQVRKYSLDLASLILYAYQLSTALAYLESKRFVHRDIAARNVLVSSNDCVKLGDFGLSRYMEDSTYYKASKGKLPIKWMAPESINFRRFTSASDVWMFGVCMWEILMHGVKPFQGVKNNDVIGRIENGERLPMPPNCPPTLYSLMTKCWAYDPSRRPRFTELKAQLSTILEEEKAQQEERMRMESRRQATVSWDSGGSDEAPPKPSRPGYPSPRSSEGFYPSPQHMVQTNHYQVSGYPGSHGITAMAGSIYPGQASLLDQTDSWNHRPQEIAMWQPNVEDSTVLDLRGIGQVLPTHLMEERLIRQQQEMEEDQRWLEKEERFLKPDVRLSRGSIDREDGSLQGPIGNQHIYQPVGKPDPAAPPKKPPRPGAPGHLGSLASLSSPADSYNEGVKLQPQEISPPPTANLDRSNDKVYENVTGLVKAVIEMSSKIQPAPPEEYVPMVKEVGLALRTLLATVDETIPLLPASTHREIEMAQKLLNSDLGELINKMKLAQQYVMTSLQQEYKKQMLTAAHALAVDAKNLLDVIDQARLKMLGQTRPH

Molecular target: T1, calbindin-D28k (rat) (UniProt P07171)
T1 sequence: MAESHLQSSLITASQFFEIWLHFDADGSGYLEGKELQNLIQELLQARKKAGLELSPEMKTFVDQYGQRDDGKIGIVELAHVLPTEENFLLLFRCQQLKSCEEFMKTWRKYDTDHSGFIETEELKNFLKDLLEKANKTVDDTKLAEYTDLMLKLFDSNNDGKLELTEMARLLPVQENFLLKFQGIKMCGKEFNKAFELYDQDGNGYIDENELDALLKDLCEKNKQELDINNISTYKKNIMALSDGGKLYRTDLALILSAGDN
Assay: co-IP; lysate of SPC111-CB cells (150 mM NaCl, 1% Triton X-100, 50 mM Tris HCl, pH 8.0, protease and phosphatase inhibitors); CB precipitated with 2-4 ug rabbit anti-CB and uMACS protein A MicroBeads, 4 °C, 30 min; Western blot for FAK, septin 7 and paxillin; n = 3

binding: binds
Molecule: focal adhesion kinase (from UniProt Q05397 1-1052)

binding: binds
B1: septin 7 (protein, UniProt Q16181 1-437)
chain: MSVSARSAAAEERSVNSSTMVAQQKNLEGYVGFANLPNQVYRKSVKRGFEFTLMVVGESGLGKSTLINSLFLTDLYSPEYPGPSHRIKKTVQVEQSKVLIKEGGVQLLLTIVDTPGFGDAVDNSNCWQPVIDYIDSKFEDYLNAESRVNRRQMPDNRVQCCLYFIAPSGHGLKPLDIEFMKRLHEKVNIIPLIAKADTLTPEECQQFKKQIMKEIQEHKIKIYEFPETDDEEENKLVKKIKDRLPLAVVGSNTIIEVNGKRVRGRQYPWGVAEVENGEHCDFTILRNMLIRTHMQDLKDVTNNVHYENYRSRKLAAVTYNGVDNNKNKGQLTKSPLAQMEEERREHVAKMKKMEMEMEQVFEMKVKEKVQKLKDSEAELQRRHEQMKKNLEAQHKELEEKRRQFEDEKANWEAQQRILEQQNSSRTLEKNKKKGKIF
